Reference: patent US20110190365A1, “Insecticidal 4-phenyl-1H-pyrazoles” (Bayer Crop Science AG, priority 2008, published 2011)
Some results were stated once for a whole list of compounds, not compound by compound.

Tested on: larvae of the mustard beetle (Phaedon cochleariae)
Test: Phaedon cochleariae test (PHAECO spray treatment)
Type: in vivo
Details: application rate 500 g/ha, Chinese cabbage leaf discs sprayed, after 7 days
Description: Phaedon cochleariae Test (PHAECO Spray Treatment)
Solvent: 78.0 parts by weight of acetone • • 1.5 parts by weight of dimethylformamide Emulsifier: 0.5 part by weight of alkylaryl polyglycol ether
To produce a suitable preparation of active compound, 1 part by weight of active compound is mixed with the stated amounts of solvent and emulsifier, and the concentrate is diluted with emulsifier-containing water to the desired concentration.
Discs of Chinese cabbage (Brassica pekinensis) are sprayed with an active compound preparation of the desired concentration and, after drying, populated with larvae of the mustard beetle (Phaedon cochleariae).
After 7 days, the effect in % is determined. 100% means that all beetle larvae have been killed; 0% means that none of the beetle larvae have been killed.

Compound	effect in % (beetle larvae killed)
CNC(=O)c1ccc(-n2nc(C(F)(F)F)c(-c3cc(Cl)cc(Cl)c3)c2N)cc1C [I-A-Q2-013]	> 80%
CSc1c(-c2cc(Cl)cc(Cl)c2)c(C(F)(F)F)nn1-c1ccc(C(=O)NCc2ccccn2)c(C)c1 [I-A-Q2-028]	> 80%
Cc1cc(-n2nc(C(F)(F)F)c(-c3cc(Cl)cc(Cl)c3)c2N)ccc1C(=O)NCc1ncccc1C [I-A-Q2-029]	> 80%
COc1ccc(CNC(=O)c2ccc(-n3nc(C(F)(F)F)c(-c4cc(Cl)cc(Cl)c4)c3N)cc2C)nc1 [I-A-Q2-032]	> 80%
Cc1cc(-n2nc(C(F)(F)F)c(-c3cc(Cl)cc(Cl)c3)c2N)ccc1C(=O)NCc1ncc[nH]1 [I-A-Q2-034]	> 80%
COc1cnc(CNC(=O)c2ccc(-n3nc(C(F)(F)F)c(-c4cc(Cl)cc(Cl)c4)c3N)cc2C)cc1OC [I-A-Q2-037]	> 80%
Cc1cccc(CNC(=O)c2ccc(-n3nc(C(F)(F)F)c(-c4cc(Cl)cc(Cl)c4)c3N)cc2C)n1 [I-A-Q2-042]	> 80%
Cc1cc(-n2nc(C(F)(F)F)c(-c3cc(Cl)cc(Cl)c3)c2N)ccc1C(=O)NC(=C(Cl)C#N)C(F)(F)F [I-A-Q2-047]	> 80%
Cc1cc(-n2nc(C(F)(F)F)c(-c3cc(Cl)cc(Cl)c3)c2N)ccc1C(=O)NC(Cc1ccccn1)C(F)(F)F (centres unmarked) [I-A-Q2-049]	> 80%
Cc1cc(-n2nc(C(F)(F)F)c(-c3cc(Cl)cc(Cl)c3)c2N)ccc1C(=O)NCCc1ccccc1 [I-A-Q2-050]	> 80%
Cc1cc(-n2nc(C(F)(F)F)c(-c3cc(Cl)cc(Cl)c3)c2N)ccc1C(=O)N(C)C [I-A-Q2-056]	> 80%
COC(=O)CC(NC(=O)c1ccc(-n2nc(C(F)(F)F)c(-c3cc(Cl)cc(Cl)c3)c2N)cc1C)c1ccccn1 (centres unmarked) [I-A-Q2-057]	> 80%
Cc1nc(CNC(=O)c2ccc(-n3nc(C(F)(F)F)c(-c4cc(Cl)cc(Cl)c4)c3N)cc2C)no1 [I-A-Q2-059]	> 80%
Cc1cc(-n2nc(C(F)(F)F)c(-c3cc(Cl)cc(Cl)c3)c2N)ccc1C(=O)NC(C)Cc1ccccn1 (centres unmarked) [I-A-Q2-065]	> 80%
Cc1cc(-n2nc(C(F)(F)F)c(-c3cc(Cl)cc(Cl)c3)c2N)ccc1C(=O)NC(C(C)C)C(F)(F)F (centres unmarked) [I-A-Q2-066]	> 80%
CC(C)(CC(F)(F)F)NC(=O)c1ccc(-n2nc(C(F)(F)F)c(-c3cc(Cl)cc(Cl)c3)c2N)cc1 [I-A-Q2-069]	> 80%
Nc1c(-c2cc(Cl)cc(Cl)c2)c(C(F)(F)F)nn1-c1ccc(C(=O)NCCCC(F)=C(F)F)cc1 [I-A-Q2-073]	> 80%
CC(NC(=O)c1ccc(-n2nc(C(F)(F)F)c(-c3ccccc3Cl)c2N)cc1)C(F)(F)F (centres unmarked) [I-A-Q2-079]	> 80%
Nc1c(-c2ccccc2Cl)c(C(F)(F)F)nn1-c1ccc(C(=O)NCc2ncccn2)cc1 [I-A-Q2-080]	> 80%
CC(NC(=O)c1ccc(-n2nc(C(F)(F)F)c(-c3cccc(Cl)c3)c2N)cc1)C(F)(F)F (centres unmarked) [I-A-Q2-083]	> 80%
CC(NC(=O)c1ccc(-n2nc(C(F)(F)F)c(-c3cc(F)cc(Cl)c3)c2N)cc1)C(F)(F)F (centres unmarked) [I-A-Q2-084]	> 80%

Compound	effect in % (beetle larvae killed)
Nc1c(-c2cccc(Cl)c2)c(C(F)(F)F)nn1-c1ccc(C(=O)NCC(F)(F)F)cc1 [I-A-Q2-085]	> 80%
Nc1c(-c2cc(F)cc(Cl)c2)c(C(F)(F)F)nn1-c1ccc(C(=O)NCC(F)(F)F)cc1 [I-A-Q2-086]	> 80%
CC(NC(=O)c1ccc(-n2nc(C(F)(F)F)c(-c3cccc(Cl)c3)c2N)cc1)c1ccccn1 (centres unmarked) [I-A-Q2-087]	> 80%
CC(NC(=O)c1ccc(-n2nc(C(F)(F)F)c(-c3cc(F)cc(Cl)c3)c2N)cc1)c1ccccn1 (centres unmarked) [I-A-Q2-088]	> 80%
CC(NC(=O)c1ccc(-n2nc(C(F)(F)F)c(-c3cccc(Cl)c3)c2N)cc1)c1ccccc1 (centres unmarked) [I-A-Q2-089]	> 80%
CC(NC(=O)c1ccc(-n2nc(C(F)(F)F)c(-c3cc(F)cc(Cl)c3)c2N)cc1)c1ccccc1 (centres unmarked) [I-A-Q2-090]	> 80%
Nc1c(-c2cc(F)cc(Cl)c2)c(C(F)(F)F)nn1-c1ccc(C(=O)NC2CC2)cc1 [I-A-Q2-092]	> 80%
CC(NC(=O)c1ccc(-n2nc(C(F)(F)F)c(-c3cc(Cl)cc(C(F)(F)F)c3)c2N)cc1)C(F)(F)F (centres unmarked) [I-A-Q2-095]	> 80%
CC(NC(=O)c1ccc(-n2nc(C(F)(F)F)c(-c3cc(Cl)cc(Cl)c3)c2Br)cc1)C(F)(F)F (centres unmarked) [I-A-Q2-096]	> 80%
Cc1nn(-c2ccc(C(=O)NC(C)C(F)(F)F)cc2)c(Br)c1-c1cccc(Cl)c1 (centres unmarked) [I-A-Q2-098]	> 80%
CNC(=O)c1ccc(-n2nc(C(F)(F)F)c(-c3cc(Cl)cc(Cl)c3)c2Br)nc1 [I-A-Q2-109]	> 80%
Cc1cc(-n2nc(C(F)(F)F)c(-c3cc(Cl)cc(Cl)c3)c2N)ccc1C(=O)N(Cc1ccccn1)C1CC1 [I-A-Q2-111]	> 80%
CC(C)NC(=O)c1ccc(-n2nc(C(F)(F)F)c(-c3cc(Cl)cc(Cl)c3)c2N)cc1 [I-A-Q2-135]	> 80%
Nc1c(-c2cc(Cl)cc(Cl)c2)c(C(F)(F)F)nn1-c1ccc(C(=O)NC2CC2)cc1 [I-A-Q2-136]	> 80%
Nc1c(-c2cc(Cl)cc(Cl)c2)c(C(F)(F)F)nn1-c1ccc(C(=O)NCc2ncccn2)cc1 [I-A-Q2-137]	> 80%
Nc1c(-c2cc(Cl)cc(Cl)c2)c(C(F)(F)F)nn1-c1ccc(C(=O)NCC(F)(F)F)cc1 [I-A-Q2-138]	> 80%
Nc1c(-c2cc(Cl)cc(Cl)c2)c(C(F)(F)F)nn1-c1ccc(C(=O)NCCC(F)(F)F)cc1 [I-A-Q2-139]	> 80%
Nc1c(-c2cc(Cl)cc(Cl)c2)c(C(F)(F)F)nn1-c1ccc(C(=O)NCC(F)F)cc1 [I-A-Q2-140]	> 80%
C=CCNC(=O)c1ccc(-n2nc(C(F)(F)F)c(-c3cc(Cl)cc(Cl)c3)c2N)cc1 [I-A-Q2-144]	> 80%
CCC(C)NC(=O)c1ccc(-n2nc(C(F)(F)F)c(-c3cc(Cl)cc(Cl)c3)c2N)cc1 (centres unmarked) [I-A-Q2-145]	> 80%
CCCNC(=O)c1ccc(-n2nc(C(F)(F)F)c(-c3cc(Cl)cc(Cl)c3)c2N)cc1 [I-A-Q2-151]	> 80%

Compound	effect in % (beetle larvae killed)
CC(NC(=O)c1ccc(-n2nc(C(F)(F)F)c(-c3ccc(Cl)cc3)c2N)cc1)C(F)(F)F (centres unmarked) [I-A-Q2-153]	> 80%
CC(C)NC(=O)c1ccc(-n2nc(C(F)(F)F)c(-c3ccc(Cl)c(Cl)c3)c2N)cc1 [I-A-Q2-154]	> 80%
Nc1c(-c2ccc(Cl)c(Cl)c2)c(C(F)(F)F)nn1-c1ccc(C(=O)NC2CC2)cc1 [I-A-Q2-157]	> 80%
Nc1c(-c2ccc(Cl)c(Cl)c2)c(C(F)(F)F)nn1-c1ccc(C(=O)NCC(F)F)cc1 [I-A-Q2-159]	> 80%
Nc1c(-c2ccc(Cl)cc2)c(C(F)(F)F)nn1-c1ccc(C(=O)NCC(F)(F)F)cc1 [I-A-Q2-162]	> 80%
CC(NC(=O)c1ccc(-n2nc(C(F)(F)F)c(-c3ccc(Cl)cc3)c2N)cc1)c1ccccn1 (centres unmarked) [I-A-Q2-165]	> 80%
Nc1c(-c2ccc(Cl)c(F)c2)c(C(F)(F)F)nn1-c1ccc(C(=O)NC2CC2)cc1 [I-A-Q2-167]	> 80%
Nc1c(-c2ccc(Cl)c(F)c2)c(C(F)(F)F)nn1-c1ccc(C(=O)NCc2ccccn2)cc1 [I-A-Q2-171]	> 80%
CC(NC(=O)c1ccc(-n2nc(C(F)(F)F)c(-c3cccc(Br)c3)c2N)cc1)C(F)(F)F (centres unmarked) [I-A-Q2-172]	> 80%
Nc1c(-c2cccc(Br)c2)c(C(F)(F)F)nn1-c1ccc(C(=O)NCc2ccccn2)cc1 [I-A-Q2-174]	> 80%
CC(NC(=O)c1ccc(-n2nc(C(F)(F)F)c(-c3ccc(F)c(F)c3)c2N)cc1)C(F)(F)F (centres unmarked) [I-A-Q2-175]	> 80%
Nc1c(-c2ccc(F)c(F)c2)c(C(F)(F)F)nn1-c1ccc(C(=O)NC2CC2)cc1 [I-A-Q2-176]	> 80%
Cc1cc(C)cc(-c2c(C(F)(F)F)nn(-c3ccc(C(=O)NCc4ccccn4)cc3)c2N)c1 [I-A-Q2-180]	> 80%
CC(NC(=O)c1ccc(-n2nc(C(F)(F)F)c(-c3cccc(F)c3)c2N)cc1)C(F)(F)F (centres unmarked) [I-A-Q2-182]	> 80%
Nc1c(-c2cccc(F)c2)c(C(F)(F)F)nn1-c1ccc(C(=O)NCC(F)(F)F)cc1 [I-A-Q2-183]	> 80%
CC(NC(=O)c1ccc(-n2nc(C(F)(F)F)c(-c3ccc(Br)cc3)c2N)cc1)C(F)(F)F (centres unmarked) [I-A-Q2-188]	> 80%
Cc1cc(-n2nc(C(F)(F)F)c(-c3cc(Cl)cc(Cl)c3)c2N)ccc1C(=O)NC1CCN(C(=O)C2CC2)CC1 [I-A-Q2-203]	> 80%
CSCCNC(=O)c1ccc(-n2nc(C(F)(F)F)c(-c3cc(Cl)cc(Cl)c3)c2N)cc1C [I-A-Q2-205]	> 80%
Cc1cc(-n2nc(C(F)(F)F)c(-c3cc(Cl)cc(Cl)c3)c2N)ccc1C(=O)N(C)Cc1cccnc1 [I-A-Q2-209]	> 80%
Cc1cc(-n2nc(C(F)(F)F)c(-c3cc(Cl)cc(Cl)c3)c2N)ccc1C(=O)N(C)C(C)c1ccccn1 (centres unmarked) [I-A-Q2-210]	> 80%
